Results on one molecule are retold here after the supplement of paper PMC8728848.

The other results are listed elsewhere or left out.

Common to all, as to assay: glycan array binding signal (z-score within array); higher = stronger binding
Common to all, as to settings: glycan notation: IUPAC condensed, linker removed

In assay [1] the target is Gal(b1-4)GlcNAc(b1-2)Man(a1-6)[Man(a1-3)]Man(b1-4)GlcNAc(b1-4)GlcNAc. The method, boiled down: (§1)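 Glycan array binding is given as a within-array Z-score, which can be read as non-binding when negative. The arrays, 3228 of them, came from the Consortium for Functional Glycomics database and were retained only where the protein sequence was available. Z-scores were averaged across arrays of the same protein sequence at different concentrations or buffers and across linkers.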

Assay [2] deals with Gal(b1-4)GlcNAc(b1-2)[Gal(b1-4)GlcNAc(b1-4)]Man(a1-3)[Gal(b1-4)GlcNAc(b1-2)Man(a1-6)]Man(b1-4)GlcNAc(b1-4)GlcNAc. Put shortly:
as §1

In assay [3] the target is Gal(b1-4)GlcNAc(b1-2)[Gal(b1-4)GlcNAc(b1-4)]Man(a1-3)[Gal(b1-4)GlcNAc(b1-2)[Gal(b1-4)GlcNAc(b1-6)]Man(a1-6)]Man(b1-4)GlcNAc(b1-4)GlcNAc. Put shortly:
as §1

The target in assay [4] is Gal(b1-4)GlcNAc(b1-2)[Gal(b1-4)GlcNAc(b1-4)]Man(a1-3)[GlcNAc(b1-4)][Gal(b1-4)GlcNAc(b1-2)Man(a1-6)]Man(b1-4)GlcNAc(b1-4)GlcNAc. Put shortly: as §1
Assay [5] has as its target Gal(b1-4)GlcNAc(b1-2)[Gal(b1-4)GlcNAc(b1-4)]Man(a1-3)[GlcNAc(b1-4)][Gal(b1-4)GlcNAc(b1-2)[Gal(b1-4)GlcNAc(b1-6)]Man(a1-6)]Man(b1-4)GlcNAc(b1-4)GlcNAc. The method, boiled down:
as §1

In assay [6] the target is Gal(b1-4)GlcNAc(b1-2)[Gal(b1-4)GlcNAc(b1-6)]Man(a1-6)[Gal(b1-4)GlcNAc(b1-2)Man(a1-3)]Man(b1-4)GlcNAc(b1-4)GlcNAc. The method, boiled down:
as §1

Assay [7] has as its target Gal(b1-4)GlcNAc(b1-2)[Gal(b1-4)GlcNAc(b1-6)]Man(a1-6)[Gal(b1-4)GlcNAc(b1-2)Man(a1-3)]Man(b1-4)GlcNAc(b1-4)[Fuc(a1-6)]GlcNAc. The method, boiled down: as §1
Assay [8] addresses Gal(b1-4)GlcNAc(b1-2)[Gal(b1-4)GlcNAc(b1-6)]Man(a1-6)[GlcNAc(b1-4)][Gal(b1-4)GlcNAc(b1-2)Man(a1-3)]Man(b1-4)GlcNAc(b1-4)GlcNAc. The method, boiled down: as §1
The target of assay [9] is Gal(b1-4)GlcNAc(b1-2)[Gal(b1-4)GlcNAc(b1-6)]Man(a1-6)[GlcNAc(b1-4)][Gal(b1-4)GlcNAc(b1-2)[Gal(b1-4)GlcNAc(b1-4)]Man(a1-3)]Man(b1-4)GlcNAc(b1-4)[Fuc(a1-6)]GlcNAc. Put shortly: as §1
The target of assay [10] is Gal(b1-4)GlcNAc(b1-3)Gal(b1-3)GalNAc. Put shortly: as §1
Assay [11] deals with Gal(b1-4)GlcNAc(b1-3)Gal(b1-3)GlcNAc. The method, boiled down: as §1
Assay [12] deals with Gal(b1-4)GlcNAc(b1-3)Gal(b1-4)Glc. Put shortly: as §1
In assay [13] the target is Gal(b1-4)GlcNAc(b1-3)Gal(b1-4)GlcNAc. The method, boiled down:
as §1

Assay [14] concerns the target Gal(b1-4)GlcNAc(b1-3)Gal(b1-4)GlcNAc(b1-2)Man(a1-3)[Gal(b1-4)GlcNAc(b1-3)Gal(b1-4)GlcNAc(b1-2)Man(a1-6)]Man(b1-4)GlcNAc(b1-4)GlcNAc. The method, boiled down: as §1
Assay [15] addresses Gal(b1-4)GlcNAc(b1-3)Gal(b1-4)GlcNAc(b1-2)Man(a1-3)[Gal(b1-4)GlcNAc(b1-3)Gal(b1-4)GlcNAc(b1-2)Man(a1-6)]Man(b1-4)GlcNAc(b1-4)[Fuc(a1-6)]GlcNAc. The method, boiled down: as §1
Assay [16] has as its target Gal(b1-4)GlcNAc(b1-3)Gal(b1-4)GlcNAc(b1-2)[Gal(b1-4)GlcNAc(b1-3)Gal(b1-4)GlcNAc(b1-6)]Man(a1-6)[Gal(b1-4)GlcNAc(b1-3)Gal(b1-4)GlcNAc(b1-2)Man(a1-3)]Man(b1-4)GlcNAc(b1-4)GlcNAc. Put shortly: as §1
The target of assay [17] is Gal(b1-4)GlcNAc(b1-3)Gal(b1-4)GlcNAc(b1-2)[Gal(b1-4)GlcNAc(b1-3)Gal(b1-4)GlcNAc(b1-6)]Man(a1-6)[Gal(b1-4)GlcNAc(b1-3)Gal(b1-4)GlcNAc(b1-2)Man(a1-3)]Man(b1-4)GlcNAc(b1-4)[Fuc(a1-6)]GlcNAc. The method, boiled down:
as §1

The target in assay [18] is Gal(b1-4)GlcNAc(b1-3)Gal(b1-4)GlcNAc(b1-3)Gal(b1-4)GlcNAc. The method, boiled down: as §1

B1: PX9937I-bfa-538-26-538 (Bacteroides fragilis) (protein)
chain: DKLDLSPIDYYGSGSYWKTEAQATAYIDGIHKHLRDAAWQHTITFGELRGGRFITGASSDGMGVSNGDIILQNFDETHTGVSKFGDLFGRITNLNLFIARVTDATYLSDEMKNFYLGEVYGLRAFYYFDLYRIYGGVPLRLTADVVEGVIDPNKLYMARSTPKEVMTQIKSDLNKSMEYFGNMNDFDPYKRGKKVYWSKAATECLMGEVYLWTSKVTTGDDVANPADLTIAKTHLESVLNNYNLKMLDDFSQVFNAKNKANDEIIFAIRFLEGEATNSNGTFTYNVGTGSTKNRYQANGEVFGDALDIQNTGNQTYEYNKAVYQNFDDADTRKEATFIASYNKDGKTGELSLYGTHVRKNIGYVNAQGARVYCGDYIFYRLPWVYLTLAEIANMEGDNAAVAKYINLVRKRAYGNAWDETLYAYPETADFTTNELAILHEKDKEFIQEGQRWWDLRRMTLTKGGTPLVFCKEGSLLGDAPILNKSTEAHKLLWPIEKTMLNKDPALEQTPGYK
As to B1, the “glycan array binding signal (z-score)” value in assay [1] was -0.348; in assay [2] it was -0.115; in assay [3], -0.654; in assay [4] it was -0.233; in assay [5], 0.62; in [6], 1.12. Moreover, the “glycan array binding signal (z-score)” value is 2.24 in assay [7]; -0.361 in assay [8]; -0.531 in assay [9]; 0.655 in assay [10]; -0.581 in assay [11]; 0.127 in assay [12]. Further, the “glycan array binding signal (z-score)” value is 0.876 in [13]; 0.473 in assay [14]; 0.184 in assay [15]; -0.325 in [16]; 0.095 in [17]; -0.221 in assay [18].
